# Out of some 340,000 compounds screened, about 6,200 (1.8%) were called active. This list was built around the results that the source calls inconclusive (neither active nor inactive); the mix of calls is not that of the screen. The call rests on the fitted dose curve; in most records, active means well fitted activation curve with a large enough effect; inconclusive means small, poorly fitted or top-dose-only effect; inactive means no such curve, though single readings can be large or run the other way. Potencies beside an inconclusive call are fits to weak or partial responses and may not hold up.
# Assay: A quantitative high throughput screen for small molecules that induce DNA re-replication in SW480 colon adenocarcinoma cells. Further: nearly all actives have a fitted effect of over 55% in size. On re-replication activation: % of control where 0% means no effect.
# Settings: Hoechst DNA content imaging, 48 h; re-replication activation: at 46.1 µM (top of the series) unless noted
# How it was run: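 Quantitative HTS format with DMSO vehicle controls; 48 hr drug incubation at 37 C, then 40 min Hoechst staining and scanning imager measurement at 405 nm excitation.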
# Potency means the concentration at half of the fitted maximal effect.
SMILES,re-replication activation,Potency
CC1Cc2ccccc2N1C(=O)c1cc2cccnc2n(C)c1=O (stereo not drawn),inactive: 0.251%,–
O=C1C(Cl)=C(NCCCO)C(=O)c2ccccc21,–,"inconclusive: 29.1 µM [activator, single point]"
COc1ccc(N2CCN(C(=O)c3ccc4c(=O)n(CCc5ccc(OC)c(OC)c5)c(=O)[nH]c4c3)CC2)cc1,inactive: 1.89%,–
COc1ccc(-n2c(=S)[nH]c3cc(C(=O)NCc4cccnc4)ccc3c2=O)cc1,–,"inconclusive: 5.17 µM [activator, full curve, poor fit]"
CCc1ccc(OCC(=O)Oc2ccc([N+](=O)[O-])cc2)cc1,–,"inconclusive: 18.4 µM [activator, single point]"
CC(C)CCn1c(CN2CCN(c3cccc(Cl)c3)CC2)nc2c1c(=O)n(C)c(=O)n2C,inactive: -22.7%,–
Cc1ccc(S(=O)(=O)N(CC(=O)Nc2cccnc2)c2cccc(Br)c2)cc1,–,"inconclusive: 29.1 µM [activator, single point]"
Cc1ccccc1C1=NC(c2ccc(F)cc2F)ON1 (stereo not drawn),inactive: -4.91%,–
COc1ccc(C(=O)NCC(=O)OCc2ccc([N+](=O)[O-])cc2)cc1,–,"inconclusive: 7.31 µM [activator, partial curve, poor fit]"
C[C@H]1CN([C@@H](C)CO)C(=O)Cc2cc(NC(=O)CCC(F)(F)F)ccc2O[C@H]1CN(C)S(=O)(=O)c1ccc(F)cc1,–,"inconclusive: 29.1 µM [activator, single point]"
COc1cccc(C(=O)Nc2ccc3[nH]c(=O)[nH]c3c2)c1OC,inactive: 0.165%,–
CCOc1ccccc1C(=O)Nc1c[nH]c(=O)[nH]c1=O,–,"inconclusive: 0.231 µM [activator, single point]"
CCn1c(SCC(=O)Nc2ccc(C)cc2)nnc1-c1ccc(O)cc1,–,"inconclusive: 29.1 µM [activator, single point]"
N#C/C(=C/c1ccc2c(c1)OCO2)C(=O)Nc1ccc(O)cc1,–,"inconclusive: 16.4 µM [activator, single point]"
Cc1ccc2[nH]c(=O)c(CN(Cc3ccccc3)C(=S)NCCCN(C)C)cc2c1,–,"inconclusive: 29.1 µM [activator, single point]"
Cc1nn(Cc2ccccc2)c2c1C(c1cccc(Cl)c1)C(C#N)=C(N)O2 (stereo not drawn),–,"inconclusive: 29.1 µM [activator, single point]"
CS(=O)(=O)N(CCc1ccccc1)CC(=O)Nc1ccc(OCc2ccccc2)cc1,–,"inconclusive: 20.6 µM [activator, partial curve, poor fit]"
COc1cccc(CN2C(=O)C(C)N(C(=O)c3ccccc3)c3ccccc32)c1 (stereo not drawn),–,"inconclusive: 6.51 µM [activator, single point]"
COCCn1c(SCC(=O)Nc2ccc(F)cc2F)nc2c([nH]c3ccccc32)c1=O,–,"inconclusive: 11.6 µM [activator, partial curve]"
Cc1csc(NC(=O)CSc2nc(C)nc3c2c(=O)n(C)c(=O)n3C)n1,inactive: -8.06%,–
CC1CCCCC1NC(=O)CSc1nnc(COc2ccc(Cl)cc2)o1 (stereo not drawn),inactive: -18.9%,–
NC(N)=Nc1nc(CSCC/C(N)=N/S(N)(=O)=O)cs1,–,"inconclusive: 0.58 µM [activator, single point]"
Nc1ccc(CSc2ccc(Cl)cc2)c(Cl)c1,–,"inconclusive: 29.1 µM [activator, single point]"

SMILES,re-replication activation,Potency
O=C(Nc1ccccc1C(=O)O)c1cccc(N2C(=O)c3ccccc3C2=O)c1,inconclusive: -30.1% [activator],–
C=CCC[C@@H](Cc1ccc(F)cc1)C(=O)OC[C@@H](Cc1ccccc1)NC(=O)[C@H](CC=C)CC(=O)NCCO,–,"inconclusive: 0.116 µM [activator, full curve, poor fit]"
O=C(Nc1ccc(S(=O)(=O)N2CCCCCC2)cc1)c1ccc(Br)o1,inactive: 6.13%,–
Cc1ccc(S(=O)(=O)N2CCC3(CC2)OCCN3S(=O)(=O)c2cccs2)cc1,–,"inconclusive: 4.11 µM [activator, single point]"
C=C(C)COc1ccc(-c2[nH]ncc2Oc2ccccc2OCC)c(O)c1,–,"inconclusive: 2.59 µM [activator, partial curve]"
COc1ccc(-c2nnc(NC(=O)c3ccc(S(=O)(=O)N(C)CC4CCCO4)cc3)o2)c(OC)c1 (stereo not drawn),–,"inconclusive: 23.1 µM [activator, single point]"
CCOC(=O)C1=CN(Cc2ccco2)S(=O)(=O)N(CC)C1c1ccccc1 (stereo not drawn),–,"inconclusive: 16.4 µM [activator, single point]"
CCc1ccc(/C=C\C(=O)N2CCc3ccccc3C2)cc1,inactive: 4.66%,–
Cc1nn(-c2ccccn2)c2nc(-c3cccs3)cc(C(=O)N3CCOCC3)c12,–,"inconclusive: 20.6 µM [activator, single point]"
S=C(NCc1ccco1)NCc1ccco1,inactive: 15.1%,–
CCOC(=O)c1nn(-c2ccc(F)cc2)c(=O)cc1OCC(=O)N1CCN(c2ccccc2)CC1,inactive: -1.87%,–
Oc1oc(-c2ccccc2)nc1C=Nc1cccc2ccccc12,–,"inconclusive: 29.1 µM [activator, single point]"
CNC(=O)c1[nH]cnc1C(=O)Nc1ccccn1,inactive: -11.7%,–
CCOC(=O)C1CCN(C(=O)c2ccc3c(c2)OCCO3)CC1,inactive: -6.4%,–
Cc1ccc(S(=O)(=O)Nc2nc(CN3CCOCC3)nc3sc(C)c(C)c23)cc1,–,"inconclusive: 1.03 µM [activator, full curve, poor fit]"
COC(=O)CC(NC(=S)NC(=O)c1ccccc1)c1ccc(Br)cc1 (stereo not drawn),inactive: -23.5%,–
Cc1ccc(-c2nc3c(c(=O)c4ccccc4n3C)c(=O)n2Cc2ccco2)cc1,–,active: 18.4 µM
CN1CCN(c2ccc(NC(=O)c3ccc(-c4ccc(Br)cc4)o3)cc2)CC1,–,"inconclusive: 29.1 µM [activator, single point]"
CN(C)CCCN(C(=O)c1ccc2c(c1)OCCO2)c1nc2cc3c(cc2s1)OCO3,–,"inconclusive: 29.1 µM [activator, single point]"
Cc1ccc(C(=O)Nc2ccc(S(=O)(=O)N3CCOCC3)cc2)cc1,inactive: -3.75%,–
CC(=O)Nc1ccc(/C=C/c2ccc3cccc([N+](=O)[O-])c3n2)cc1,–,"inconclusive: 20.6 µM [activator, single point]"
COc1ccc(S(=O)(=O)N2CCSCC2)cc1,–,"inconclusive: 1.84 µM [activator, partial curve, poor fit]"
NS(=O)(=O)c1ccc(CCNCC#Cc2ccccc2)cc1,–,"inconclusive: 11.6 µM [activator, single point]"

# Copied from the listing for reference:
SMILES,re-replication activation,Potency
CCOC(=O)C1CCN(C(=O)c2ccc3c(c2)OCCO3)CC1,inactive: -6.4%,–
Cc1ccc(S(=O)(=O)Nc2nc(CN3CCOCC3)nc3sc(C)c(C)c23)cc1,–,"inconclusive: 1.03 µM [activator, full curve, poor fit]"
COC(=O)CC(NC(=S)NC(=O)c1ccccc1)c1ccc(Br)cc1 (stereo not drawn),inactive: -23.5%,–
Cc1ccc(-c2nc3c(c(=O)c4ccccc4n3C)c(=O)n2Cc2ccco2)cc1,–,active: 18.4 µM
CN1CCN(c2ccc(NC(=O)c3ccc(-c4ccc(Br)cc4)o3)cc2)CC1,–,"inconclusive: 29.1 µM [activator, single point]"
CN(C)CCCN(C(=O)c1ccc2c(c1)OCCO2)c1nc2cc3c(cc2s1)OCO3,–,"inconclusive: 29.1 µM [activator, single point]"

# Later entries:

SMILES,re-replication activation,Potency
COc1ccc(-n2ccn3c(CCC(=O)N4CCN(c5cccc(C)c5C)CC4)nnc3c2=O)cc1,inactive: -5.95%,–
CCC(=O)NC(c1ccc(C)cc1)c1ccc2cccnc2c1O (stereo not drawn),–,active: 0.82 µM
NS(=O)(=O)c1ccc(N=Nc2c(O)[nH]c3ccc(Br)cc23)cc1,–,"inconclusive: 20.6 µM [activator, single point]"
CC(=O)Nc1ccc(S(=O)(=O)NCCC(=O)NNC(=O)c2ccncc2)cc1,–,"inconclusive: 29.1 µM [activator, single point]"
Cc1ccc(S(=O)(=O)N2CCN(c3nc4ccccc4nc3-n3nc(C)cc3C)CC2)cc1,–,"inconclusive: 29.1 µM [activator, partial curve, poor fit]"
COc1ccc(NC(=O)C(=O)N/N=C\c2ccc(CNC(=O)C(=O)Nc3ccc(C)c(C)c3)o2)c(OC)c1,–,active: 2.91 µM
CC(OC(=O)/C=C/c1ccccc1)C(=O)Nc1cccc(C#N)c1 (stereo not drawn),–,"inconclusive: 18.4 µM [activator, single point]"
COc1cccc(NC(=O)CSc2nnc3c(n2)[nH]c2ccc(C)cc23)c1,–,"inconclusive: 0.0046 µM [activator, full curve, poor fit]"
C[C@@H](C(=O)NC1CCN(Cc2ccccc2)CC1)N1C(=O)N2CCc3c([nH]c4ccccc34)[C@@]2(C)C1=O,–,"inconclusive: 16.4 µM [activator, partial curve, poor fit]"
COC(=O)c1ccccc1NC(=S)NC(NC(=O)COc1ccccc1)C(Cl)(Cl)Cl (stereo not drawn),inactive: 3.54%,–
Cn1c(N)c(C(=O)COC(=O)Cc2ccccc2F)c(=O)n(C)c1=O,inactive: -1.13%,–
CC(C)(C)c1ccc(C(=O)Cn2cnnc2C#N)cc1,–,"inconclusive: 16.4 µM [activator, single point]"
Cc1ccc(C)c(OCCC(=O)OCC(=O)N2CCN(S(=O)(=O)c3ccc(Cl)cc3)CC2)c1,–,"inconclusive: 14.6 µM [activator, partial curve, poor fit]"
Cc1ccc(Sc2nc3ccc(C)cn3c(=O)c2/C=N/O)cc1,–,"inconclusive: 29.1 µM [activator, partial curve, poor fit]"
Cn1c(SCC(=O)NC2CCCCCC2)nnc1-c1ccco1,–,"inconclusive: 20.6 µM [activator, single point]"
O=C(NCCCNCc1ccccc1)c1ccccn1,–,inactive
CC1CN(C(=O)CSc2nnc(-c3ccccc3)o2)CC(C)O1 (stereo not drawn),–,"inconclusive: 20.6 µM [activator, single point]"
COc1ccc(CCNc2ncnc3cc(OC)c(OC)cc23)cc1OC,–,"inconclusive: 29.1 µM [activator, single point]"
Cc1cc(C)n(CCCNC(=O)c2ccc(C)o2)n1,inactive: -2.07%,–
N=c1oc2c3c4c(cc2cc1C(=O)Nc1ccccc1)CCCN4CCC3,–,active: 1.41 µM
COc1ccc(C(=O)NC(=S)Nc2cccc(S(=O)(=O)N3CCOCC3)c2)cc1,–,"inconclusive: 18.4 µM [activator, single point]"
COCc1ccc(CN2CCC(C(=O)Nc3cccc(-c4cccc(Cl)c4)c3)CC2)o1,–,"inconclusive: 29.1 µM [activator, single point]"

# From PubChem BioAssay AID624297 (National Center for Advancing Translational Sciences (NCATS), 2012)
